In the supplement of paper PMC3334620:
Whole data set: some 33,000 sequences, median “E-score (-0.5 to 0.5)” near -0.016, cut for the highest 2% near 0.3. This is one part of the list.

These sequences were tested against T1, Yer184c (UniProt P39961) (assay: PBM E-score (8-mer binding enrichment) (E-score (-0.5 to 0.5)); higher = stronger / more preferred TF binding). Details: protein concentration: 100 nM; construct: GST-full length.
T1 sequence: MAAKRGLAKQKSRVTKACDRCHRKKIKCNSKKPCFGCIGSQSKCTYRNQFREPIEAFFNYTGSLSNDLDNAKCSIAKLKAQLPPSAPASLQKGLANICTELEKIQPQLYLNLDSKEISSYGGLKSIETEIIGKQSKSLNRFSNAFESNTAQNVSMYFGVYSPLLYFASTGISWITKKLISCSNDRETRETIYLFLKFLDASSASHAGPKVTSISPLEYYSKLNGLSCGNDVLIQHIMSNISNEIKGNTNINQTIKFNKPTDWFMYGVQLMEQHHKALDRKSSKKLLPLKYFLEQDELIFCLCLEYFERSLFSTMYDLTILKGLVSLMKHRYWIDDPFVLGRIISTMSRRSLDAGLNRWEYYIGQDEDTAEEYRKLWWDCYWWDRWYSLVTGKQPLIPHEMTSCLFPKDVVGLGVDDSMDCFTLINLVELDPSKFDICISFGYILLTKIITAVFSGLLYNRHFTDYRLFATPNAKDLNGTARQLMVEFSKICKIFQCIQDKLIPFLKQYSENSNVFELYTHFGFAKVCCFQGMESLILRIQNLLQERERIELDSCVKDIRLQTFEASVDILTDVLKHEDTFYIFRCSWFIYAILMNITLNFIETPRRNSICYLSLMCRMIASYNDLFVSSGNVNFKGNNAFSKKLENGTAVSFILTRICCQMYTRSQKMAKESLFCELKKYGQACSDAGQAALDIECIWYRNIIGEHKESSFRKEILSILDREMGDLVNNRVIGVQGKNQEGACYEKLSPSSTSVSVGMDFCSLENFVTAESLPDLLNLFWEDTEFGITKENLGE
Method in brief: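 E-scores (a modified Wilcoxon-Mann-Whitney statistic) were assigned by the Universal PBM Analysis Suite to every ungapped eight-base word pooled with its reverse complement. The input came from universal all-10-mer Agilent arrays made double-stranded by primer extension and probed with GST-tagged yeast transcription factors at about 100-200 nM. Fluorescent anti-GST detected bound protein, and masliner normalised the scans.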

Sequence	PBM E-score
AGATCTGG	-0.239
AATTCCGA	0.389
GTCACTGA	-0.0419
CATCTTCG	0.109
TATTGTCA	0.107
ATTCTGAG	0.0545
ATTTCACA	0.114
ACATGCCT	-0.0851
ACCGCCGA	0.263
CTTACAAA	0.181
ACGTCTAC	-0.263
CCAGAGCG	-0.253
AAATCCCC	-0.298
CTAACTAA	0.0559
AGCCTGAA	-0.0147
ATGCTCGC	-0.082
AACTTGGC	-0.0881
GTGGGCAA	-0.188
AAGTCGCC	-0.0835
CAGGCAAA	0.0666
GCGCTAAC	0.142
CCTGGACC	-0.164
ACCCCACG	-0.274
ATCGGAAC	0.291
AACGCCTA	-0.149

Sequence	PBM E-score
ACACACTC	-0.0517
CATGAATA	-0.179
ATCACACA	0.0284
CATCGACA	-0.0913
AAGTGTGG	0.0318
AGTCCTCG	-0.167
AGGCCTGC	-0.163
GGAGCGGA	0.0206
ACCCCGAG	0.0399
CGGGAACG	0.0157
ACTCCCTC	-0.237
ACTGACGG	-0.165
ACCATTGG	-0.0691
GACGCATA	0.0516
GACGTACA	-0.00237
GTTTCAGA	0.0364
ACCCAAGA	-0.124
AGCGAGCC	0.0799
AGAGAGTC	-0.246
CCGTCGGC	0.225
CAACCCGG	0.0605
TGATCAAA	0.00122
ATAGTAAA	0.0797
GAAATAGC	0.166
AACCGCCA	-0.161

Sequence	PBM E-score
CCAGTCAC	-0.244
CTGCGGCA	0.0669
CGTTACCC	-0.104
ATGCTAAC	-0.106
ACTCCGAC	0.194
CCACCTAA	-0.111
AGACCGCT	-0.0165
CTCAGAAG	-0.0924
CATAACAA	0.215
ACGGGTGG	-0.261
AAAATTGC	0.00018
CATCGAGA	-0.0427
ATGGTTCC	0.17
CAATGGTG	-0.322
CAACTTGC	-0.253
GTGGGAGA	-0.281
CGACCGAG	0.238
AAAATGTC	0.12
CGCGCACA	0.112
AGCTCTGG	-0.169
CCTACACA	-0.00136
ACCCATCG	-0.162
TCAGCTGA	0.115
ACTTTGCG	-0.0587
ATGAGCAG	-0.0805

Sequence	PBM E-score
ACCATCCG	0.0482
ATGCCGGG	0.244
ACGGTAGA	-0.0773
AGACAACG	0.029
CGGATGAG	0.171
AATTATAC	0.283
AAAAGAGA	-0.0282
ACACATAT	0.00024
CACTAAGG	-0.0433
CTGAGGTA	0.0423
CAATGACC	-0.195
GCGTGATA	-0.029
CATTGTTC	0.0837
GCTATTGA	-0.0333
AAAGTGCC	-0.13
AATAGCCG	0.229
ACTTCATA	-0.0295
ACAGTGCA	0.1
CACGGATA	0.332
GTTGCTTA	9e-05
AACTTTGC	0.0603
CGAGTTTA	0.109
AACATCCG	0.381
GCGTGTTA	-0.201
CCACTTTA	-0.176

Sequence	PBM E-score
CCAAATTA	0.134
AAACCGAA	0.233
CCCTAACG	-0.0118
ACCATCGC	0.0808
ACTTTTGA	0.0708
ACAATACG	0.0985
CGACTTCA	0.029
ACACACTG	-0.139
ACTGCAAG	-0.18
CTGCCAGC	-0.0493
CCAGAGTA	-0.0969
GGAGAGTA	-0.072
TCTTAGAA	0.282
CACTTATA	0.00196
AATCCACT	0.106
GCCTCGCA	-0.306
CATGTAAG	0.0168
CTAAGGCC	-0.0325
ACGTGTCT	-0.249
CCGAGGAA	0.265
AGGATTGG	-0.0536
CCCAACCG	-0.0966
CACAAGTA	-0.128
AACCGCTC	-0.0977
AGAGATCG	0.00172

Sequence	PBM E-score
AGAAGCAA	0.0666
ACAAATAG	0.145
CACCCCAA	-0.136
CCCGTTTA	0.0848
AAATCGTT	0.0706
CCAGGCAG	-0.111
CCCTGCCA	-0.059
CAGTCAGA	-0.212
CCGGGGGC	0.0635
ACAGAGCT	-0.214
CCGTATAA	0.252
ACGTTTTA	0.0304
GACTATAC	0.0413
TACCTTAA	0.0713
GTGTAAAA	0.0916
ATGCGGGA	0.234
CTCCTATC	-0.228
ATTTTAAA	0.331
AAGTAGGT	-0.161
GGTATTGA	-0.0533
GCCTTTAC	0.00277
AATACACT	0.186
GGTCTATA	-0.16
CTTGCCAC	-0.116
GTTGGGCA	-0.143

Sequence	PBM E-score
AGTGCTTA	-0.141
AGTGGGCC	-0.325
ATGTTCTG	0.0622
CCATTCCG	0.134
TCAAACAA	0.226
CTTTGAAC	0.0199
AAGTCAAG	-0.273
CGGATTGC	0.147
CACTTCAC	0.0219
AGCGCAAC	0.02
GGGTACCA	-0.302
ATCGCCTA	-0.112
ACAGAGTA	0.0994
ATCCAGAA	0.192
GAGAAATA	0.201
AATAAGGC	-0.0802
ATTAAGAA	0.183
CGGTCGAA	0.148
GCATTAGC	-0.0819
GGACCTCC	-0.128
ATTCTCCC	0.0626
CAGTCTGA	-0.134

Exported field by field: entries from further up
AGTGGGCC
  PBM E-score = -0.325
TCAAACAA
  PBM E-score = 0.226
ACAGAGTA
  PBM E-score = 0.0994
GGACCTCC
  PBM E-score = -0.128
